These results are taken from patent US20060172958A1 (published 2006).

The assay deals with T1, hBoo (Bcl-B) yeast two-hybrid bait from pAS2 (human, UniProt Q9HD36 1-204).
T1 construct: also called pAS2-hBoo; pAS2-Bcl-B; not shown: bait fusion partner encoded by the pAS2 vector
T1 sequence (looked up): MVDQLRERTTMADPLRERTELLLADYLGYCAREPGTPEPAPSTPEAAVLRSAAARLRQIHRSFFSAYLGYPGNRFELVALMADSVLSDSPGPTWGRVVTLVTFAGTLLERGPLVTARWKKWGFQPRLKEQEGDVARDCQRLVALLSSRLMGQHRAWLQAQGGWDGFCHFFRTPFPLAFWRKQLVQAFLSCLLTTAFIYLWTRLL
The assay can be described thus: yeast two-hybrid, hBoo bait against human liver cDNA library.

B1: yeast two-hybrid library clone encoding amino acids 103-277 of phospholipid scramblase 3 (other)
chain: CNRYELRSGAGQPLGQAAEESNCCARLCCGARRPLRVRLADPGDREVLRLLRPLHCGCSCCPCGLQEMEVQAPPGTTIGHVLQTWHPFLPKFSIQDADRQTVLRVVGPCWTCGCGTDTNFEVKTRDESRSVGRISKQWGGLVREALTDADDFGLQFPLDLDVRVKAVLLGATFLI
notes: also called PLS3 clone; cDNA cloned from the yeast two-hybrid screen; not shown: fusion partner of the Clontech MatchMaker human liver library vector
Take B1: the binding result is reported as “binds”.
